Some entries share one result that the patent states for a list of compounds. At least one structure is not confirmed: it was looked up by name or label, or the drawing left a doubt.
What was measured:
[1] = biological target: T1, catalytic domain of human JAK2 (Homo sapiens, UniProt O60674); experiment: Inhibition of JAK2 activity (Z'-Lyte Kinase Assay kit-Tyr 6 Peptide); format: biochemical; conditions: at 1 μM
T1 construct: the catalytic domain of human JAK2
Procedure: The inhibition of JAK2 kinase activity was determined in 384-well assay microplates using the Z′-Lyte® Kinase Assay kit-Tyr 6 Peptide kit, supplied by Invitrogen (Ref: PV4122), following the manufacturer's instructions.
(§1) In a final volume of 10 μL per well, 2.5 μL of the product to be tested dissolved in 4% DMSO (final concentration of the product to be tested, 0.1-10000 nM) was incubated with 0.5 μg/well of the catalytic domain of human JAK2, 2 μM of the substrate peptide Z′-Lyte® Tyr 6 and 16 μM of ATP; all components were dissolved in 50 mM pH 7.5 Hepes buffer, 10 mM Magnesium chloride (II), 1 mM EGTA and 0.01% Brij® 35. The reaction was started by the addition of said 16 μM ATP; after incubation for 1 hour at 25° C., 5 μL of A Z′-Lyte® Tyr 6 development reagent was added and the mixture was incubated for 1 hour at 25° C. Phosphorylation was then quantified in each well using a Safire2® fluorescence microplate reader from Tecan.

Sequences of proteins named here, by UniProt entry; tags and fusion partners are left off. Residues count along the entry.
UniProt O60674, 849-1124 limits assumed: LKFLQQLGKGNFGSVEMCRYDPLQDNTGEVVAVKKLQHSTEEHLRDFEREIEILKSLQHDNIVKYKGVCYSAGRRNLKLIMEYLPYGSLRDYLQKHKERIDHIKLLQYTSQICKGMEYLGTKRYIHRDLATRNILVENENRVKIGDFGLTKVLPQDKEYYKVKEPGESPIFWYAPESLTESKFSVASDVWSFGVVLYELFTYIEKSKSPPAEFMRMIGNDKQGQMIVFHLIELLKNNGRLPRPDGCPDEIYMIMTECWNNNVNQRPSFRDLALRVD
UniProt P52333, 781-1124 limits assumed: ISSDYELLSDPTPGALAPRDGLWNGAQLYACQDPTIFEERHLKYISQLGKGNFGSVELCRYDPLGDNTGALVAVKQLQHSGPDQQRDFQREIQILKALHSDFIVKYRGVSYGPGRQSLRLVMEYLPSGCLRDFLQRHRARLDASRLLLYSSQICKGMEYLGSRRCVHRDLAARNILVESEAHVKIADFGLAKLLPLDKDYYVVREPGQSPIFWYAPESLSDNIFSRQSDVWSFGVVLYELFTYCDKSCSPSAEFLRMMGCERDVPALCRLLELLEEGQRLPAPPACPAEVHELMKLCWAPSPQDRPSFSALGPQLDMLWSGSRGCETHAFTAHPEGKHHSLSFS

[2] = biological target: catalytic domain of human JAK3 (Homo sapiens, UniProt P52333); experiment: Inhibition of JAK3 activity (Z'-Lyte Kinase Assay kit-Tyr 6 Peptide); format: biochemical; conditions: at 1 μM
Procedure: The inhibition of JAK3 kinase activity was determined in 384-well assay microplates using the Z′-Lyte® Kinase Assay kit-Tyr 6 Peptide kit, supplied by Invitrogan (Ref: PV4122), following the manufacturer's instructions.
as §1, with “0.3 μg/mL” for “0.5 μg/well”, “JAK3 (amino acid sequence […]),” for “JAK2,”, “4” for “16”

SMILES: COC(=O)N1CCC[C@H](n2c(=O)[nH]c3cnc(-c4cnn5ccc(C#N)cc45)nc32)C1 [Example 26]
- inhibition of JAK2 activity [1]: more than 50%
- inhibition of JAK3 activity [2]: more than 50%

— patent US8946257B2, “N-containing heteroaryl derivatives as JAK3 kinase inhibitors” (Vectura Limited, priority 2009, dated 2015)
